Test results taken from publication doi:10.1101/605451.
Results are given in words; binding and its absence hold for the method and conditions named. Binding calls can cover weak binding; strength is not graded here.

Target: AC012254.2 (human)
Experiment: two-hybrid

B1: TMEM258 (protein, UniProt P61165 1-79)
chain: MELEAMSRYTSPVNPAVFPHLTVVLLAIGMFFTAWFFVYEVTSTKYTRDIYKELLISLVASLFMGFGVLFLLLWVGIYV
- binding: binds
